## Library screening results

Amino acid sequences for entries named in this document (tags omitted).
UniProt E9BF75, entry or part of it: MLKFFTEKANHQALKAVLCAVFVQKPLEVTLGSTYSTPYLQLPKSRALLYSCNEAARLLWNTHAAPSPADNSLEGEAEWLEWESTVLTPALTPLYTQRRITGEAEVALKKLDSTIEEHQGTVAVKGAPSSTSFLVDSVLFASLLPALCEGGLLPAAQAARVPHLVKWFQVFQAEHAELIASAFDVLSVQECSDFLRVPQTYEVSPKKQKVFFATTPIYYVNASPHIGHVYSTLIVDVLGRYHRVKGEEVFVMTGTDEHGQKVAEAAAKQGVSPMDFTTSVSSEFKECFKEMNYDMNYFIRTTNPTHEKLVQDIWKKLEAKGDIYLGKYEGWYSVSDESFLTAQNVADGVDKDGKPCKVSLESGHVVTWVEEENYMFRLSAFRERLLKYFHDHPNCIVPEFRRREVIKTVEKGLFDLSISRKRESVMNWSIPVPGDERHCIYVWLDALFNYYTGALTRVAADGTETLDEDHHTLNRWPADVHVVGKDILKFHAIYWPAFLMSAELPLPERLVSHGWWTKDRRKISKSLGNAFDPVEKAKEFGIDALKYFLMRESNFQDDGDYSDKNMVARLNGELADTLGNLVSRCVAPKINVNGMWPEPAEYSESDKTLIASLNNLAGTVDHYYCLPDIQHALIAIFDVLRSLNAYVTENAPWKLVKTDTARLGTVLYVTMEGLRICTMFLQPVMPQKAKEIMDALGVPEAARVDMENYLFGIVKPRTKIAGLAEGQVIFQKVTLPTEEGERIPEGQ

The values are deposited in ChEMBL (CHEMBL3988442, “University of Dundee, Small-Polar-MMV Screening Library” (2021)).

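Methionyl-tRNA synthetase (putative), Leishmania donovani (UniProt E9BF75). Primary screen of methionyl-tRNA synthetase; the read-out is not stated. The test concentration is not given. Values are per cent inhibition. Size under these conditions: about 68,000 compounds, about 24 of them at 50% or above in at least one test.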

Results are percentages, as filed. The controls that fix the scale are not given in the record; negative values are as filed. The compounds are a random part of those screened.

For CC(=O)Nn1c(C)cc(CN2CCC(C(=O)N3CCCC3)CC2)c1C the result was 8.824%. For O=C(c1ccc(F)cc1F)N1C[C@H]2CC[C@@H]1CN(Cc1ccccc1)C2 the result was 14.93%. Cc1cc(N(C)C)cc(C2CCN(S(=O)(=O)c3cccnc3)C2)n1 (centres undefined) read 19.31%. Cc1cccc(N2CCN(C(=O)C3CC4(CCNCC4)CN3)CC2)n1 (centres undefined) gave 4.032%. Result for Cc1ncsc1C(=O)NCCSCc1cccs1 was 6.032%. Cc1noc(C)c1-c1cncc(C2CCCN2Cc2cc[nH]n2)n1 (centres undefined) read 14.89%.

Result for O=C(O)c1ccnc2c(Br)cccc12 was 10.97%. CN(C)C(=O)NCC(=O)N1CCCC2(CCC(=O)N(CC3CC3)C2)C1 (centres undefined) read 14.72%. For CN1CCC(CNC(=O)NCc2ccc(N(C)C)cc2)CC1 the result was 1.272%. With O=C(C1CC1)N1CCC2(CC1)OCCO2 the screen gave 4.93%. CC(C)N(C)C(=O)C1CSCN1S(=O)(=O)c1cccs1 (centres undefined) read 3.562%. With COc1cccc2c1OCC(C(=O)N1CCC(N3CCSCC3)CC1)C2 (centres undefined) the screen gave 10.7%.

For CCc1nc2n(n1)CCCC2NC(=O)Nc1cccc(F)c1F (centres undefined) the result was 10.22%. CCOc1cccc(NC(=O)Cc2cccc(O)c2)n1 gave 6.052%. CCN1CCC2(COCc3cnc(-c4cccnc4)nc32)C1 (centres undefined) gave 19.19%. Result for COCCN1CCc2cc(C(=O)N(C)C)c(NCC3CC3)nc2CC1 was 13.01%. CS(=O)(=O)c1cncnc1C1CCCN(C(=O)Nc2ccc(F)cc2)C1 (centres undefined) read 5.901%. CCOc1ccc2[nH]c(=O)c(CN3CCN(S(N)(=O)=O)CC3)cc2c1 read 9.537%.

Cc1ccc(S(=O)(=O)NC(=O)CCc2ccccc2)cc1N(C)C read 19.47%. Result for O=C1CCCN1CCC1CCN(C2CCCNC2)CC1 (centres undefined) was -0.361%. With Cc1cc(F)c(S(=O)(=O)N(C)CCn2cccn2)cc1F the screen gave 18.16%. With COc1c(CNC(c2ccccc2)c2ccc(F)cc2)c(C)nn1C (centres undefined) the screen gave 3.279%. Result for CCOC(=O)N1CC(=O)N(Cc2ccc(OC)cc2)CC(O)C1 (centres undefined) was 10.68%. Result for Cn1cc(C(=O)N2CC[C@@H]3[C@@H]2CCN3c2ccccn2)cn1 was 5.759%.

For CN(CCn1nc2ccccn2c1=O)CC(=O)N1CCCC1 the result was 11.97%. Cc1cc(NC(=O)CCN2CCCC2Cn2cncn2)no1 (centres undefined) gave 18.06%. Result for O=C(Nc1nncs1)NC1CCCc2c1cnn2CCO (centres undefined) was 3.714%. Cn1ccc(CN2CCCC23CCN(Cc2ccccc2F)CC3)n1 read 14.03%. COC(=O)N1CCCN(C(=O)c2cccc3cccnc23)CC1 gave 9.278%. CN(c1ncc(C(=O)NCc2ccccc2)c(N)n1)C1CCCCC1 gave 8.075%.

For Cc1cccc(C(=O)N2CC(=O)N(c3ccccc3Cl)CC2C)n1 (centres undefined) the result was 0.8403%. COCc1nc(C2CC2)nn1-c1cccc(F)c1 gave 18.12%. Result for O=C1CN(C(=O)C2CCCCC2)CC(O)CN1Cc1ccc(Cl)cc1 (centres undefined) was 15.62%. Cc1nn(Cn2ccc(C(=O)N3CCCC(C)C3)n2)c(C)c1Cl (centres undefined) gave 5.263%. For CS(=O)(=O)NCc1ncn2c1CN(C(=O)C1CCCCC1)CCC2 the result was -1.333%. CCC(C)Nc1ccc(-c2nc(-c3cccc(OC)c3OC)no2)cn1 (centres undefined) gave 4.469%.

CCC(CC)C(=O)NCc1cn2cc(Br)ccc2n1 gave 6.897%. Result for COCCNC(=O)[C@H]1CC[C@@H]2[C@@H](CCN2S(C)(=O)=O)O1 was 0.7407%. COCCOCC(=O)N1C[C@@H]2CC[C@H](Oc3cccc(F)c3)[C@@H]2C1 gave 17.36%. With Cc1ccc(NC(C(N)=O)c2ccc(F)cc2)cc1 (centres undefined) the screen gave 10.97%. For Cc1ccccc1SC1CCN(C(=O)[C@H]2[C@@H]3CNC[C@@H]32)CC1 the result was 5.333%. Cc1nc(COC[C@H]2CCC[C@@]23CN(C(C)C)CCO3)cs1 read 8%.

Result for Cc1cc(C2CCCN(C(=O)CN3CCN(C)CC3)C2)n[nH]1 (centres undefined) was 6.032%. Result for COc1ccc2c(c1)CC(NCc1cccc(CO)c1)CC2 (centres undefined) was 6.812%. Result for O=C(CCCn1ccnc1)N1CCC2(CC1)[C@H](O)C[C@@H]2OCCO was 11.98%.

Some entries from above, unchanged:

For Cc1cc(C2CCCN(C(=O)CN3CCN(C)CC3)C2)n[nH]1 (centres undefined) the result was 6.032%.
For COc1c(CNC(c2ccccc2)c2ccc(F)cc2)c(C)nn1C (centres undefined) the result was 3.279%.
For CCOc1cccc(NC(=O)Cc2cccc(O)c2)n1 the result was 6.052%.